Results are given in words; binding and its absence hold for the method and conditions named. Binding seen in cells or lysates may run through a third protein. Some entries that bind do so weakly or less than the wild type.
Biological target: NOD-like receptor family pyrin domain containing 3 (NLRP3) (human (endogenous in HBE)) (UniProt Q96P20)
Assay: co-IP; lysates of HBE-N cells, treated with or without VD3, immunoprecipitated with anti-NLRP3 antibody or anti-rabbit IgG and immunoblotted for VDR and BRCC3

Chains of the proteins cited; added tags and fusions are not shown.
UniProt Q96P20: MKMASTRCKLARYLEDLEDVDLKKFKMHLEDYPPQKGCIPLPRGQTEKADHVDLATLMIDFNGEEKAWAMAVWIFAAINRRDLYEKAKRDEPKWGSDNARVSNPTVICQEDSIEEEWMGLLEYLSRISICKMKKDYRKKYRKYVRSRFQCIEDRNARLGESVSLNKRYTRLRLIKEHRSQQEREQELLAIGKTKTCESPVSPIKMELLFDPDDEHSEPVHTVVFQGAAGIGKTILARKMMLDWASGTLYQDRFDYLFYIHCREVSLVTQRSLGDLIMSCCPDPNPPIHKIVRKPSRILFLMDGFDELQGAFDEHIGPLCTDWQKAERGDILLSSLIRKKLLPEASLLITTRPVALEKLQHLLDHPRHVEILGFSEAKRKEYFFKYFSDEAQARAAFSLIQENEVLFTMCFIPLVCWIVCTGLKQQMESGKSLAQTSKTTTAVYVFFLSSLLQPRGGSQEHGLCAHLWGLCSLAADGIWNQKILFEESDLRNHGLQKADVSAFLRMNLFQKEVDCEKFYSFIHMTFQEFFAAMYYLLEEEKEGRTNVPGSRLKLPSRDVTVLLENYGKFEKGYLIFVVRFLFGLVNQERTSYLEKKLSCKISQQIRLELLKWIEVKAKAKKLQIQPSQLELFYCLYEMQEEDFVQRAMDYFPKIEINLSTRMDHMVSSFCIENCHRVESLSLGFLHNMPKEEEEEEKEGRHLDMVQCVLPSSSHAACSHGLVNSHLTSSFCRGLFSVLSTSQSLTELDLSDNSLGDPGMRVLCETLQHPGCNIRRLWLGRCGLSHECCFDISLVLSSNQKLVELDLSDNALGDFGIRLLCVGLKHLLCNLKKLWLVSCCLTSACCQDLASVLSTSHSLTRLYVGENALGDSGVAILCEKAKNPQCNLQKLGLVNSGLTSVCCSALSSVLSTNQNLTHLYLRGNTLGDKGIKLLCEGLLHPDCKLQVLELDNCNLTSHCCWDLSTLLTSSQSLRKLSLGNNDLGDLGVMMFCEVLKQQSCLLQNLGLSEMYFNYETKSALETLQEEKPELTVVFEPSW
UniProt P46736: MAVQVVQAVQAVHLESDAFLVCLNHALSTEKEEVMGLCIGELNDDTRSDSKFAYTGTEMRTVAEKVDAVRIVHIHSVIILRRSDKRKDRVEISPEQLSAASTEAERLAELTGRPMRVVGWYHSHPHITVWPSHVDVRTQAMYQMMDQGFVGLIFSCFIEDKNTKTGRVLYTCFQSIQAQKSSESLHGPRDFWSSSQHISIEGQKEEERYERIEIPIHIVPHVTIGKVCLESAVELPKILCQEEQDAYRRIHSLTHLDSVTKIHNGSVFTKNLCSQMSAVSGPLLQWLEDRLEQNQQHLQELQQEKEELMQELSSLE

Row | binding | Molecule
1 | binds | BRCA1/BRCA2-containing complex subunit 3 (BRCC3) (from UniProt P46736 1-316) (enzyme)
2 | binds | vitamin D receptor (VDR) (protein, UniProt P11473 1-427) MEAMAASTSLPDPGDFDRNVPRICGVCGDRATGFHFNAMTCEGCKGFFRRSMKRKALFTCPFNGDCRITKDNRRHCQACRLKRCVDIGMMKEFILTDEEVQRKREMILKRKEEEALKDSLRPKLSEEQQRIIAILLDAHHKTYDPTYSDFCQFRPPVRVNDGGGSHPSRPNSRHTPSFSGDSSSSCSDHCITSSDMMDSSSFSNLDLSEEDSDDPSVTLELSQLSMLPHLADLVSYSIQKVIGFAKMIPGFRDLTSEDQIVLLKSSAIEVIMLRSNESFTMDDMSWTCGNQDYKYRVSDVTKAGHSLELIEPLIKFQVGLKKLNLHEEEHVLLMAICIVSPDRPGVQDAALIEAIQDRLSNTLQTYIRCRHPPPGSHLLYAKMIQKLADLRSLNEEHSKQYRCLSFQPECSMKLTPLVLEVFGNEIS

Source: publication PMC10285036
